Data as given in PubChem BioAssay AID504744 (Drosophila RNAi Screening Center, 2011).
Assay: 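Identify dsRNAs that increase or decrease phospho-dAkt after insulin treatment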 (primary screen). Cells: Drosophila Kc167 cells. Reagents: long dsRNA against Drosophila genes, 250 ng dsRNA per well of a 384-well plate. Time to read-out: 3 days of knock-down, then overnight serum-free starvation before stimulation. Challenge: bovine insulin at 387 nM for 10 minutes after 12 h without serum. Measured: 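Per-well phospho-dAkt level from an in-cell fluorescent antibody stain, divided by a DNA-dye signal; log2 residuals turned into z-scores that take cell number into account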. Active means: 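Under insulin, a gene counts as a hit if the average z-score of two replicates lies above 2.5 or below -2.5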.
In all, the deposit lists about 23,000 reagents; this is an unselected part of those with a known target gene and a result. In the full data, 98 (0.43%) got an active call. 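Only hit calls are given; the phospho-dAkt signals, z-scores and hit direction were not deposited.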 A plus sign joins genes that one reagent is predicted to hit. No sequences are given here.

gene knocked down	PubChem SID	Outcome
Exn	SID104189465	inactive
Exn	SID104189869	inactive
c(2)M	SID104181714	inactive
CG17786	SID104195062	inactive
CG11617	SID104180113	inactive
CG11617	SID104201447	inactive
Cyp28a5	SID104183089	inactive
CG3776	SID104184209	inactive
CG18558	SID104180317	inactive
CG18558	SID104201300	inactive
Hsc70-4	SID104196503	active
CG12963	SID104186057	inactive
cmb	SID104189582	inactive
mah	SID104194437	inactive
Or88a	SID104196562	inactive
CG33218 (retired record)	SID104202301	inactive
neur	SID104196805	inactive
CG10616	SID104189542	inactive
Cap-D3	SID104182141	inactive
Rhau	SID104182992	inactive
CAH2	SID104190538	inactive
CG2972	SID104198042	inactive
IP3K2	SID104199292	inactive
IP3K2	SID104199539	inactive
IP3K2	SID104202028	inactive
glob2	SID104192352	inactive
CG31029	SID104195214	inactive
Hou	SID104199793	inactive
Hou	SID104201840	inactive
epsilonTry	SID104187403	inactive
Jhe	SID104186966	inactive
CG4860	SID104195456	inactive
CG4860	SID104201424	inactive
Nup54	SID104187074	inactive
Nlg2	SID104183370	inactive
CG12831	SID104185971	inactive
CG4597	SID104190224	inactive
PPO2	SID104186894	inactive
Cen	SID104182496	inactive
CG8159	SID104196184	inactive

Next part; the last 10 above are carried over.
gene knocked down	PubChem SID	Outcome
Jhe	SID104186966	inactive
CG4860	SID104195456	inactive
CG4860	SID104201424	inactive
Nup54	SID104187074	inactive
Nlg2	SID104183370	inactive
CG12831	SID104185971	inactive
CG4597	SID104190224	inactive
PPO2	SID104186894	inactive
Cen	SID104182496	inactive
CG8159	SID104196184	inactive
CG31205	SID104193230	active
TyrRS	SID104190222	inactive
Src42A	SID104184707	inactive
CG31845 (retired record)	SID104201781	inactive
sip2	SID104182946	inactive
side-V	SID104183980	inactive
side-V	SID104183981	inactive
side-V	SID104201787	inactive
CG15435	SID104180242	inactive
CG17784	SID104195060	inactive
CG13667	SID104189820	inactive
Golgin245	SID104184166	inactive
Golgin245	SID104201600	inactive
Swip-1	SID104181875	inactive
Swip-1	SID104181876	inactive
CG4267	SID104180439	inactive
Urod	SID104187361	inactive
CG6628	SID104190471	inactive
CG34281	SID104194599	inactive
Cyp49a1	SID104186529	inactive
Cyp49a1	SID104187159	inactive
NetA	SID104200053	inactive
wb	SID104181167	inactive
wb	SID104183426	inactive
Sgt	SID104182604	inactive
CG5913	SID104195708	inactive
CG30375	SID104186626	inactive
Tim17a2	SID104192044	inactive
CG31437	SID104193503	inactive
drm	SID104180069	inactive
CG5597	SID104184309	inactive
sktl	SID104184507	active
Septin2	SID104196647	inactive
CG10055	SID104192295	inactive
DCTN2-p50	SID104186924	inactive
CG4793	SID104181758	inactive
robl22E	SID104180081	inactive
pdm2	SID104182288	inactive
pdm2	SID104182289	inactive
pdm2	SID104183379	inactive
TrpRS	SID104193889	inactive
CG7079	SID104195984	inactive
CG9919	SID104200011	inactive
Wsck	SID104193474	inactive
PrBP	SID104182981	inactive
Vps52	SID104182842	inactive
CG30088	SID104201431	inactive
Skadu	SID104181282	inactive
CG32277	SID104187988	inactive
UGP + PGRP-LF	SID104190210	inactive
Oseg5	SID104183001	inactive
CG3328	SID104184149	inactive
EMC2B	SID104195298	inactive
mtm	SID104183368	inactive
vas (retired record)	SID104201598	inactive
SMC5	SID104191641	inactive
unc-4	SID104200173	inactive
unc-4	SID104201648	inactive
CG33791 + CG18170	SID104188315	inactive
CG33791 + CG18170	SID104188393	inactive
Hip14	SID104190362	inactive
trio	SID104187720	inactive
trio	SID104188319	inactive
trio	SID104188532	inactive
CG7906	SID104190720	inactive
apn	SID104194916	inactive
CG13319	SID104186148	inactive
